# These are yes or no findings as the source states them, for the method shown. In cells and extracts the contact can be indirect.
# B1: Transketolase (enzyme, UniProt P29401 1-623)
# chain: MESYHKPDQQKLQALKDTANRLRISSIQATTAAGSGHPTSCCSAAEIMAVLFFHTMRYKSQDPRNPHNDRFVLSKGHAAPILYAVWAEAGFLAEAELLNLRKISSDLDGHPVPKQAFTDVATGSLGQGLGAACGMAYTGKYFDKASYRVYCLLGDGELSEGSVWEAMAFASIYKLDNLVAILDINRLGQSDPAPLQHQMDIYQKRCEAFGWHAIIVDGHSVEELCKAFGQAKHQPTAIIAKTFKGRGITGVEDKESWHGKPLPKNMAEQIIQEIYSQIQSKKKILATPPQEDAPSVDIANIRMPSLPSYKVGDKIATRKAYGQALAKLGHASDRIIALDGDTKNSTFSEIFKKEHPDRFIECYIAEQNMVSIAVGCATRNRTVPFCSTFAAFFTRAFDQIRMAAISESNINLCGSHCGVSIGEDGPSQMALEDLAMFRSVPTSTVFYPSDGVATEKAVELAANTKGICFIRTSRPENAIIYNNNEDFQVGQAKVVLKSKDDQVTVIGAGVTLHEALAAAELLKKEKINIRVLDPFTIKPLDRKLILDSARATKGRILTVEDHYYEGGIGEAVSSAVVGEPGITVTHLAVNRVPRSGKPAELLKMFGIDRDAIAQAVRGLITKA
# Target: p53 (UniProt P04637)
# Test: co-IP; only mentioned in the discussion; no cells, antibodies, conditions or figure given
binder,measurement,value
B1,binding,no binding
